At least one compound was matched to its structure with a doubt left.
Tested on: Slit2
Assay: Slit2 mRNA in primary inguinal cells treated with forskolin
Assay type: cell-based, Mus musculus
Settings: forskolin for 4 h; FIG. 1G

C=C[C@@]1(C)CC(=O)[C@]2(O)[C@@]3(C)[C@@H](O)CCC(C)(C)[C@@H]3[C@H](O)[C@H](OC(C)=O)[C@@]2(C)O1 [forskolin]
Slit2 expression in inguinal cells: induced

From patent US12702694B2, “Methods for identification, assessment, prevention, and treatment of metabolic disorders using SLIT2” (Dana-Farber Cancer Institute, Inc., priority 2015, dated 2026)
